Patent publication US20200095286A1
No constants are given. Whether binding was seen depends on the method and setting. Some results given as binding are weak or reduced against the parent protein; the word gives no strength.

Protein sequences, listed by entry. Tags and fused reporters are not part of them.
UniProt P0A988: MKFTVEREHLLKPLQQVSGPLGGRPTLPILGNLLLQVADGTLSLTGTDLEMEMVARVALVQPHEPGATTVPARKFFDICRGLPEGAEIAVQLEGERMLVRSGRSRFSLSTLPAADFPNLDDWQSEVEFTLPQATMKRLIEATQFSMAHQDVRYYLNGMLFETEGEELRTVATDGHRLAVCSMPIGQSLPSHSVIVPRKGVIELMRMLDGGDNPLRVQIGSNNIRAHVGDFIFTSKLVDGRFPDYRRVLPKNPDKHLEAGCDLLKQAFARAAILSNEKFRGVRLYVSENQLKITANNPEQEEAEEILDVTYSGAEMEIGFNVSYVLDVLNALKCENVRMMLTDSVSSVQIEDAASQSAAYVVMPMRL

Target: β-clamp protein from E. coli (E. coli) (UniProt P0A988)
Experiment: microscale thermophoresis (MST)

Binder	binding
MDRWSVKWKKKRKIRRRRRRRRRRR [… (SEQ ID NO: 1203)]	binds
MDRWAVKWKKKRKIRRRRRRRRRRR [… (SEQ ID NO: 1204)]	binds
MDRWLSKWKKKRKIRRRRRRRRRRR [… (SEQ ID NO: 1211)]	binds
MDRWLTKWKKKRKIRRRRRRRRRRR [… (SEQ ID NO: 1208)]	binds
MDRWLVPWKKKRKIRRRRRRRRRRR [… (SEQ ID NO: 1212)]	binds
MDRFLSKWKKKRKIRRRRRRRRRRR [… (SEQ ID NO: 1210)]	binds
MDRFSLKWKKKRKIRRRRRRRRRRR [… (SEQ ID NO: 1209)]	binds
